Reference: publication PMC9428494
Results are given in words; binding and its absence hold for the method and conditions named. Binding seen in cells or lysates may run through a third protein. Some results given as binding are weak or reduced against the parent protein; the word gives no strength. Where a sequence is shown, tags or fusion partners need not be part of it.

Chains of the proteins cited; added tags and fusions are not shown.
UniProt Q86TM6: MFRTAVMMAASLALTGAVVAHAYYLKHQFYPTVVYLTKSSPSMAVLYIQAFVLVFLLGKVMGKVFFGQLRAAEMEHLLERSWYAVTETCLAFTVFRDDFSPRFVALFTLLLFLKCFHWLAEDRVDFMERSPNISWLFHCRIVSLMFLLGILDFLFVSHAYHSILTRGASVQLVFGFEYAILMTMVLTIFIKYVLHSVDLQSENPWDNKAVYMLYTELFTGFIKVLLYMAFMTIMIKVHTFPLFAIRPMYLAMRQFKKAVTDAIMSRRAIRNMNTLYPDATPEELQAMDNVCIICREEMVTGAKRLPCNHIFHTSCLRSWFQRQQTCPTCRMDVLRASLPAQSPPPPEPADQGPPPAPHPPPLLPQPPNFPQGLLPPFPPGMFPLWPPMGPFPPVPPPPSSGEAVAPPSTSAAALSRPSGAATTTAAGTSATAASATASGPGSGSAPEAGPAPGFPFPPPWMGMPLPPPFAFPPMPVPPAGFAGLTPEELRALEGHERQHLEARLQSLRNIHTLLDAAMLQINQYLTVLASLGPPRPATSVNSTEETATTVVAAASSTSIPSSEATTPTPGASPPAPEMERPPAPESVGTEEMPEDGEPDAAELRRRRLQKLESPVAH

Biological target: T1, ZNF280A (human (endogenous in colorectal cancer cells; cell line not named for this experiment)) (UniProt P59817)
T1 sequence: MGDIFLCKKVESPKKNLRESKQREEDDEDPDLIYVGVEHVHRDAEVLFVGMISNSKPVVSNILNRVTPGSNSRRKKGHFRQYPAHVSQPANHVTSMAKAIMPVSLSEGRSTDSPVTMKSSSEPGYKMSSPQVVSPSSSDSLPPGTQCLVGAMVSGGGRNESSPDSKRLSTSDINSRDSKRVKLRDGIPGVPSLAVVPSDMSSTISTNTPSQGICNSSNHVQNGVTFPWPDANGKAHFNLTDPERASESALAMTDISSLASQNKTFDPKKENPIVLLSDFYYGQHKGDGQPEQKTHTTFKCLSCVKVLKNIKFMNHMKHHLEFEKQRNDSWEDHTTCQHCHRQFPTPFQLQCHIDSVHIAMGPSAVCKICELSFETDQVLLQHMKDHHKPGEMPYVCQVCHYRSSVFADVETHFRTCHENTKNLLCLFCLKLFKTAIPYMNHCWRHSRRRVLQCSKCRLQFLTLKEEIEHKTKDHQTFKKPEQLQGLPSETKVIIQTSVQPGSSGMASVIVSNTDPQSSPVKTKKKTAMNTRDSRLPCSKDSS
Assay: co-IP; endogenous proteins; antibody captured on Dynabeads; which protein was precipitated and which cell line was used are not stated

binding: binds
Substance: E3 ubiquitin ligase SYVN1 (from UniProt Q86TM6 1-617) (enzyme)
